Experimental data: patent publication US20210054093A1
Results are given in words; binding and its absence hold for the method and conditions named. Some entries that bind do so weakly or less than the wild type.

Amino acid sequences for entries named in this document (tags omitted). A change or cut given only in a name is not applied to a line headed by its entry. Residues count along the entry.
UniProt Q08722: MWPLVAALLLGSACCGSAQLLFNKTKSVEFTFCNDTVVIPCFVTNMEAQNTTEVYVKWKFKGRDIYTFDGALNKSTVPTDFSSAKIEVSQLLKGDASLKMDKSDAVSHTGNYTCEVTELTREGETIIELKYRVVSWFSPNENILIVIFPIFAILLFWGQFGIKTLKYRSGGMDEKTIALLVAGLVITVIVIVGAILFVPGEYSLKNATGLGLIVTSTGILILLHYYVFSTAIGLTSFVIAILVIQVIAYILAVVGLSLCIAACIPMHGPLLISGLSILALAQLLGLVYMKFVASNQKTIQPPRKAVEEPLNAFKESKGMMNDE
human CD47 on Raji cells: residues 19-323 of Q08722
recombinant CD47-ECD (34C5 ELISA): residues 19-139 of Q08722

Legend:
[1] = target: recombinant CD47-ECD (34C5 ELISA) (human) (UniProt Q08722); assay: ELISA (legend of FIG. 20)
[2] = target: CD47 on human red blood cells (human) (UniProt Q08722); assay: RBC binding assay (FIG. 25)
[3] = target: CD47 on human red blood cells (human) (UniProt Q08722); assay: RBC binding assay (legend of FIG. 25)
[4] = target: human CD47 on Raji cells (human) (UniProt Q08722); assay: flow cytometry on Raji cells (legend of FIG. 21)

Measured: binding

B1: CD47 antibody 34C5 (antibody, V domains shown)
VH: QVQLVQSGAEVKKPGSSVKVSCKASGYTFSSYYMHWVRQAPGQGLEWMGEINPNNARINFNEKFKTRVTLTVDKSTSTAYMELSSLRSEDTAVYYCTRGYYRYGAWFGYWGQGTLVTVSS
VL: DIQMTQSPSSLSASVGDRVTITCRASQDISDYLNWYQQKPGKAPKLLIYYISRLHSGVPSRFSGSGSGTDYTLTISSLQPEDFATYYCQQGHTLPWTFGGGTKVEIK
binds: all assays above
